No constants are given. Whether binding was seen depends on the method and setting. In cells and extracts the contact can be indirect. Some entries that bind do so weakly or less than the wild type.
T1: Pex6pTPA (S. cerevisiae) (UniProt P33760)
T1 sequence: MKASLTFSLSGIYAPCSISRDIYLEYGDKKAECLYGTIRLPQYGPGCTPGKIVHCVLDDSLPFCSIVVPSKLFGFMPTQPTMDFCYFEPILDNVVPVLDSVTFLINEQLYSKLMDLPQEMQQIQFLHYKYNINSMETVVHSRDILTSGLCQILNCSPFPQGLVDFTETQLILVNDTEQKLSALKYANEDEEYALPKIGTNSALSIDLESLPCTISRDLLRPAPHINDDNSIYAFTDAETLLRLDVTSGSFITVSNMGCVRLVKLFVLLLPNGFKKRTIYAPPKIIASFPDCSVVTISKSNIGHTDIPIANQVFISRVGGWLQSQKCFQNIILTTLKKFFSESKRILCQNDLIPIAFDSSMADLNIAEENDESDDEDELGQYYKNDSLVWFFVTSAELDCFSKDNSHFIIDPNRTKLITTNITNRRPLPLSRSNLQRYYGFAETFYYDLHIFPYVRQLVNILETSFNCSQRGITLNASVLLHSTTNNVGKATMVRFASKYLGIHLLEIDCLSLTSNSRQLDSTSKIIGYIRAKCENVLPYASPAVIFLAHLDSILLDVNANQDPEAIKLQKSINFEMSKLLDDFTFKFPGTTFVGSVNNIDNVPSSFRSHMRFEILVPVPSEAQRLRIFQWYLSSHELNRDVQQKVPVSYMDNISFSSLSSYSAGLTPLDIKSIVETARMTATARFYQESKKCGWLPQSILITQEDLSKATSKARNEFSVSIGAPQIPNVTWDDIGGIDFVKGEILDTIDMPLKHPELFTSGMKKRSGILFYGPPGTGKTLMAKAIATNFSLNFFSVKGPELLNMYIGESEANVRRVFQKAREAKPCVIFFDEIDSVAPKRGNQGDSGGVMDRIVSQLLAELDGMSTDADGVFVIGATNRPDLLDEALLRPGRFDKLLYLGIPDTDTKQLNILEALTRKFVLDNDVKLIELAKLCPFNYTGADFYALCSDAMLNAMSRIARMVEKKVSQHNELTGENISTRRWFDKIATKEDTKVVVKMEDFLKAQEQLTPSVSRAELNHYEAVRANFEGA

T2: Pex1pTPA (S. cerevisiae) (UniProt P24004)
T2 sequence: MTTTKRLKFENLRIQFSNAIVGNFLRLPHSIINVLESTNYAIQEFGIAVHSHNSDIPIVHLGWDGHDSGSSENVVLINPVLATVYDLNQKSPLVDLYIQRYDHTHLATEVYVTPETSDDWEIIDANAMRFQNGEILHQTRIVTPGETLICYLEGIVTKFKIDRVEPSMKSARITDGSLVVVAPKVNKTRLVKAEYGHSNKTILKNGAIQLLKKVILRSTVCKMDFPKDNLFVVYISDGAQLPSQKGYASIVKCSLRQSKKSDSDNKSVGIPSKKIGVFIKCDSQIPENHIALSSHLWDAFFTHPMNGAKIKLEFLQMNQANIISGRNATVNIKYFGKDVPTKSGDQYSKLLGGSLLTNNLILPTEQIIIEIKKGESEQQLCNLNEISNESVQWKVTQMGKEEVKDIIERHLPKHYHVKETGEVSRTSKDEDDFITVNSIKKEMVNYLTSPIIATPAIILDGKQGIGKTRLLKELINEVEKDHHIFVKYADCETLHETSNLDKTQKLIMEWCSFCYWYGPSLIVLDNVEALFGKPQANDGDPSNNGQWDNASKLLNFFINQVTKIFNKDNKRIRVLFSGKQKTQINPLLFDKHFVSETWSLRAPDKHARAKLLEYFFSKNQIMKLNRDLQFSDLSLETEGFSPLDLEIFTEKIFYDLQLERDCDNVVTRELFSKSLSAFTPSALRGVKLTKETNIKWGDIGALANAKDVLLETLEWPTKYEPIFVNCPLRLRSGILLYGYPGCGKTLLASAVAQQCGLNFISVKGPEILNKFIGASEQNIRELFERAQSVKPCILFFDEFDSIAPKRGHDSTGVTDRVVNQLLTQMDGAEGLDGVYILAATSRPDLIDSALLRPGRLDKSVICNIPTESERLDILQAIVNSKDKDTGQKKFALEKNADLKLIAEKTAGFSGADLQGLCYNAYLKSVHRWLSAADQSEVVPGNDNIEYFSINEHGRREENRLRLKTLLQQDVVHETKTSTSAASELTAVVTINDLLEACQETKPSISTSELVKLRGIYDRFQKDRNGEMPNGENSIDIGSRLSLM


Assays:
[1] = biological target: T1, Pex6pTPA (S. cerevisiae); assay: co-IP; Pex1pTPA (Δpex6 cells with plasmid Pex6p or Pex6pWB) or Pex6pTPA (Δpex1 cells with plasmid Pex1p or Pex1pWB) isolated from 1% digitonin-solubilised total membranes on IgG-Sepharose, TEV protease eluate, immunoblot; 5 mM ATP
[2] = biological target: T2, Pex1pTPA (S. cerevisiae); assay: as above

binding [1]	binding [2]	Binder
binds	binds	Pex5p (endogenous, yeast membranes) (receptor, UniProt P35056 1-612) MDVGSCSVGNNPLAQLHKHTQQNKSLQFNQKNNGRLNESPLQGTNKPGISEAFISNVNAISQENMANMQRFINGEPLIDDKRRMEIGPSSGRLPPFSNVHSLQTSANPTQIKGVNDISHWSQEFQGSNSIQNRNADTGNSEKAWQRGSTTASSRFQYPNTMMNNYAYASMNSLSGSRLQSPAFMNQQQSGRSKEGVNEQEQQPWTDQFEKLEKEVSENLDINDEIEKEENVSEVEQNKPETVEKEEGVYGDQYQSDFQEVWDSIHKDAEEVLPSELVNDDLNLGEDYLKYLGGRVNGNIEYAFQSNNEYFNNPNAYKIGCLLMENGAKLSEAALAFEAAVKEKPDHVDAWLRLGLVQTQNEKELNGISALEECLKLDPKNLEAMKTLAISYINEGYDMSAFTMLDKWAETKYPEIWSRIKQQDDKFQKEKGFTHIDMNAHITKQFLQLANNLSTIDPEIQLCLGLLFYTKDDFDKTIDCFESALRVNPNDELMWNRLGASLANSNRSEEAIQAYHRALQLKPSFVRARYNLAVSSMNIGCFKEAAGYLLSVLSMHEVNTNNKKGDVGSLLNTYNDTVIETLKRVFIAMNRDDLLQEVKPGMDLKRFKGEFSF
binds	binds	Pex12p (endogenous, yeast membranes) (protein, UniProt Q04370 1-399) MSFYSNLPSAGQSSRGSSTSGRNGVGLEPLYPTIFEIMSSQEIDSLLPASIRYLLANHLVANFPNRYTLRLNKYFFEWFQAIKGFVEWYHLKTYNSTFIDRFYGLQLFSSRDRNLALTQCLNPKGQSEWPQGLQLNQQQKSVIFLEKIILPYITAKLDEILEKISMNNIFSSDETENKWPKRAFLRIYPFIKKLLALSNLLVKLLFLTKRTGSVSLLQYLFKIEYTTVRPLSSELSGLKETKGMDNRLRKTNISSIFALMQGQLSIIPRFLTFMGSQFFPTFIFVLRVYQWWTTQDMTTKLQKRVNDLDEDIPRPPFSSHSDKTEDKEGVSEACPVCEKTVQNPCVLETGYVACYPCAISYLVNNEGHCPVTNKKLLGCTYNKHTNKWEVVTGIRKLLI
binds	binds	Pex18p (endogenous, yeast membranes) (receptor, UniProt P38855 1-283) MNSNRCQTNEVNKFISSTEKGPFTGRDNTLSFNKIGSRLNSPPILKDKIELKFLQHSEDLNQSRSYVNIRPRTLEDQSYKFEAPNLNDNETSWAKDFRYNFPKNVEPPIENQIANLNINNGLRTSQTDFPLGFYSQKNFNIASFPVVDHQIFKTTGLEHPINSHIDSLINAEFSELEASSLEEDVHTEEENSGTSLEDEETAMKGLASDIIEFCDNNSANKDVKERLNSSKFMGLMGSISDGSIVLKKDNGTERNLQKHVGFCFQNSGNWAGLEFHDVEDRIA
binds	–	Pex15p (endogenous, yeast membranes) (protein, UniProt Q08215 1-383) MAASEIMNNLPMHSLDSSLRDLLNDDLFIESDESTKSVNDQRSEVFQECVNLFIKRDIKDCLEKMSEVGFIDITVFKSNPMILDLFVSACDIMPSFTKLGLTLQSEILNIFTLDTPQCIETRKIILGDLSKLLVINKFFRCCIKVIQFNLTDHTEQEEKTLELESIMSDFIFVYITKMRTTIDVVGLQELIEIFIFQVKVKLHHKKPSPNMYWALCKTLPKLSPTLKGLYLSKDVSIEDAILNSIDNKIQKDKAKSKGKQRGVKQKIHHFHEPMLHNSSEEQVKVEDAFNQRTSTDSRLQSTGTAPRKKNNDITVLAGSFWAVLKHHFTRSVLNKNGLLLTGLLLLLCLKKYKSLMAIFKHVPAAFHTVYPQIVGLLKLLASI
binds	–	Pex1p expressed from pRS416-Pex1p in Δpex1Pex6pTPA yeast (protein, UniProt P24004 1-1043) MTTTKRLKFENLRIQFSNAIVGNFLRLPHSIINVLESTNYAIQEFGIAVHSHNSDIPIVHLGWDGHDSGSSENVVLINPVLATVYDLNQKSPLVDLYIQRYDHTHLATEVYVTPETSDDWEIIDANAMRFQNGEILHQTRIVTPGETLICYLEGIVTKFKIDRVEPSMKSARITDGSLVVVAPKVNKTRLVKAEYGHSNKTILKNGAIQLLKKVILRSTVCKMDFPKDNLFVVYISDGAQLPSQKGYASIVKCSLRQSKKSDSDNKSVGIPSKKIGVFIKCDSQIPENHIALSSHLWDAFFTHPMNGAKIKLEFLQMNQANIISGRNATVNIKYFGKDVPTKSGDQYSKLLGGSLLTNNLILPTEQIIIEIKKGESEQQLCNLNEISNESVQWKVTQMGKEEVKDIIERHLPKHYHVKETGEVSRTSKDEDDFITVNSIKKEMVNYLTSPIIATPAIILDGKQGIGKTRLLKELINEVEKDHHIFVKYADCETLHETSNLDKTQKLIMEWCSFCYWYGPSLIVLDNVEALFGKPQANDGDPSNNGQWDNASKLLNFFINQVTKIFNKDNKRIRVLFSGKQKTQINPLLFDKHFVSETWSLRAPDKHARAKLLEYFFSKNQIMKLNRDLQFSDLSLETEGFSPLDLEIFTEKIFYDLQLERDCDNVVTRELFSKSLSAFTPSALRGVKLTKETNIKWGDIGALANAKDVLLETLEWPTKYEPIFVNCPLRLRSGILLYGYPGCGKTLLASAVAQQCGLNFISVKGPEILNKFIGASEQNIRELFERAQSVKPCILFFDEFDSIAPKRGHDSTGVTDRVVNQLLTQMDGAEGLDGVYILAATSRPDLIDSALLRPGRLDKSVICNIPTESERLDILQAIVNSKDKDTGQKKFALEKNADLKLIAEKTAGFSGADLQGLCYNAYLKSVHRWLSAADQSEVVPGNDNIEYFSINEHGRREENRLRLKTLLQQDVVHETKTSTSAASELTAVVTINDLLEACQETKPSISTSELVKLRGIYDRFQKDRNGEMPNGENSIDIGSRLSLM
binds	–	Pex1pWB (E798Q) expressed from pRS416 in Δpex1Pex6pTPA yeast (protein, UniProt P24004 1-1043) MTTTKRLKFENLRIQFSNAIVGNFLRLPHSIINVLESTNYAIQEFGIAVHSHNSDIPIVHLGWDGHDSGSSENVVLINPVLATVYDLNQKSPLVDLYIQRYDHTHLATEVYVTPETSDDWEIIDANAMRFQNGEILHQTRIVTPGETLICYLEGIVTKFKIDRVEPSMKSARITDGSLVVVAPKVNKTRLVKAEYGHSNKTILKNGAIQLLKKVILRSTVCKMDFPKDNLFVVYISDGAQLPSQKGYASIVKCSLRQSKKSDSDNKSVGIPSKKIGVFIKCDSQIPENHIALSSHLWDAFFTHPMNGAKIKLEFLQMNQANIISGRNATVNIKYFGKDVPTKSGDQYSKLLGGSLLTNNLILPTEQIIIEIKKGESEQQLCNLNEISNESVQWKVTQMGKEEVKDIIERHLPKHYHVKETGEVSRTSKDEDDFITVNSIKKEMVNYLTSPIIATPAIILDGKQGIGKTRLLKELINEVEKDHHIFVKYADCETLHETSNLDKTQKLIMEWCSFCYWYGPSLIVLDNVEALFGKPQANDGDPSNNGQWDNASKLLNFFINQVTKIFNKDNKRIRVLFSGKQKTQINPLLFDKHFVSETWSLRAPDKHARAKLLEYFFSKNQIMKLNRDLQFSDLSLETEGFSPLDLEIFTEKIFYDLQLERDCDNVVTRELFSKSLSAFTPSALRGVKLTKETNIKWGDIGALANAKDVLLETLEWPTKYEPIFVNCPLRLRSGILLYGYPGCGKTLLASAVAQQCGLNFISVKGPEILNKFIGASEQNIRELFERAQSVKPCILFFDQFDSIAPKRGHDSTGVTDRVVNQLLTQMDGAEGLDGVYILAATSRPDLIDSALLRPGRLDKSVICNIPTESERLDILQAIVNSKDKDTGQKKFALEKNADLKLIAEKTAGFSGADLQGLCYNAYLKSVHRWLSAADQSEVVPGNDNIEYFSINEHGRREENRLRLKTLLQQDVVHETKTSTSAASELTAVVTINDLLEACQETKPSISTSELVKLRGIYDRFQKDRNGEMPNGENSIDIGSRLSLM

— PMC4740771, “Nucleotide-dependent assembly of the peroxisomal receptor export complex” (Scientific Reports, 2016)
